The text below walks through data of patent US20110014214A1.

Sequences of proteins named here, by UniProt entry; tags and fusion partners are left off. A change or cut given only in a name is not applied to a line headed by its entry. Residues count along the entry.
UniProt P05554: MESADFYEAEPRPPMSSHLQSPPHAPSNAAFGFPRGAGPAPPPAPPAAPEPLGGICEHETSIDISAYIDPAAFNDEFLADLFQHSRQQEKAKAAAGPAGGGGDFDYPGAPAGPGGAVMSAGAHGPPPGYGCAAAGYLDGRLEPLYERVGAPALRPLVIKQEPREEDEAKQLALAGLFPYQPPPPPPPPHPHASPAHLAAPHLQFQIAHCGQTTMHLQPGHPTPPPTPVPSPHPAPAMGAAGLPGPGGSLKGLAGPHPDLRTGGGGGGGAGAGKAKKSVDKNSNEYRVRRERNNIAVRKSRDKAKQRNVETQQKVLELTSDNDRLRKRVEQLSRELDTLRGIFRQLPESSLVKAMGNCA
HA-C/EBPαp30: residues 118-358 of P05554

No constants are given. Whether binding was seen depends on the method and setting. In cells and extracts the contact can be indirect. Some entries that bind do so weakly or less than the wild type. Where a sequence is shown, tags or fusion partners need not be part of it.

One experiment has as its target HA-C/EBPαp30 (rat) (UniProt P05554). Put plainly: co-immunoprecipitation (Myc IP, HA western) from 293T cells; seen without MG132 (lane 5) and with MG132 (lane 4).
For experiment [1], the target named is HA-tagged (C-terminus) C/EBPαp42 (rat) (UniProt P05554). The experiment can be described thus: co-immunoprecipitation (Myc IP, HA western) from 293T cells pretreated with MG132 (lane 4).

B1: myc-tagged (C-terminus) Trib2 (murine Trib2 in pcDNA3.1/myc-HIS) (protein, not shown: small tags and cut ends)
chain: MNIHRSTPITIARYGRSRNKTQDFEELSSIRSAEPSQSFSPNLGSPSPPETPNLSHCVSCIGKYLLLEPLEGDHVFRAVHLHSGEELVCKVFEISCYQESLAPCFCLSAHSNINQITEILLGETKAYVFFERSYGDMHSFVRTCKKLREEEAARLFYQIASAVAHCHDGGLVLRDLKLRKFIFKDEERTRVKLESLEDAYILRGDDDSLSDKHGCPAYVSPEILNTSGSYSGKAADVWSLGVMLYTMLVGRYPFHDIEPSSLFSKIRRGQFNIPETLSPKAKCLIRSILRREPSERLTSQEILDHPWFSTDFSVSNSGFGAKEACDQLVPDVNMEENLDPFFN
On to B1, for which the binding result (with HA-C/EBPαp30 (rat); in experiment [1]) was “binds” each time.
